The list shows a part of the results.
Tests used:
Test in all cases: glycan array binding signal (z-score within array); higher = stronger binding
Conditions in all cases: glycan notation: IUPAC condensed, linker removed
[1] = molecular target: Fuc(a1-2)Gal(b1-4)[Fuc(a1-3)]GlcNAc
Procedure, shortened: (§1)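 Glycan array data were curated from 3228 arrays in the Consortium for Functional Glycomics database and kept only where the protein sequence was available. Glycan names were converted to IUPAC-condensed notation, and columns mapping to the same glycan were averaged. The binding signal is a within-array Z-score, averaged across arrays of the same protein sequence at different concentrations or buffers and across linkers. Negative Z-scores can be read as non-binding.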

[2] = molecular target: Fuc(a1-2)Gal(b1-4)[Fuc(a1-3)]GlcNAc(b1-2)Man(a1-3)[Fuc(a1-2)Gal(b1-4)[Fuc(a1-3)]GlcNAc(b1-2)Man(a1-6)]Man(b1-4)GlcNAc(b1-4)[Fuc(a1-6)]GlcNAc
Procedure, shortened: as §1

[3] = molecular target: Fuc(a1-2)Gal(b1-4)[Fuc(a1-3)]GlcNAc(b1-2)[Fuc(a1-2)Gal(b1-4)[Fuc(a1-3)]GlcNAc(b1-4)]Man(a1-3)[Fuc(a1-2)Gal(b1-4)[Fuc(a1-3)]GlcNAc(b1-2)Man(a1-6)]Man(b1-4)GlcNAc(b1-4)GlcNAc
Procedure, shortened: as §1

[4] = molecular target: Fuc(a1-2)Gal(b1-4)[Fuc(a1-3)]GlcNAc(b1-3)Gal(b1-4)[Fuc(a1-3)]GlcNAc
Procedure, shortened: as §1

[5] = molecular target: Fuc(a1-2)Gal(b1-4)[Fuc(a1-3)]GlcNAc(b1-3)Gal(b1-4)[Fuc(a1-3)]GlcNAc(b1-3)Gal(b1-4)[Fuc(a1-3)]GlcNAc
Procedure, shortened: as §1

[6] = molecular target: Fuc(a1-2)Gal(b1-4)[Fuc(a1-3)]GlcNAc(b1-3)GalNAc
Procedure, shortened: as §1

[7] = molecular target: Fuc(a1-2)Gal(b1-4)[Fuc(a1-3)]GlcNAc(b1-3)[Neu5Ac(a2-6)Gal(b1-4)GlcNAc(b1-6)]Gal(b1-4)Glc
Procedure, shortened: as §1

[8] = molecular target: Fuc(a1-2)Gal3S(b1-4)GlcNAc
Procedure, shortened: as §1

[9] = molecular target: Fuc(a1-2)Gal6S(b1-3)GlcNAc
Procedure, shortened: as §1

[10] = molecular target: Fuc(a1-2)Gal6S(b1-3)GlcNAc6S
Procedure, shortened: as §1

[11] = molecular target: Fuc(a1-2)Gal6S(b1-4)Glc
Procedure, shortened: as §1

[12] = molecular target: Fuc(a1-2)Gal6S(b1-4)Glc6S
Procedure, shortened: as §1

[13] = molecular target: Fuc(a1-2)[Gal(a1-3)]Gal
Procedure, shortened: as §1

[14] = molecular target: Fuc(a1-2)[Gal(a1-3)]Gal(b1-3)GalNAc
Procedure, shortened: as §1

[15] = molecular target: Fuc(a1-2)[Gal(a1-3)]Gal(b1-3)GalNAc(b1-3)Gal(a1-4)Gal(b1-4)Glc
Procedure, shortened: as §1

[16] = molecular target: Fuc(a1-2)[Gal(a1-3)]Gal(b1-3)GlcNAc
Procedure, shortened: as §1

[17] = molecular target: Fuc(a1-2)[Gal(a1-3)]Gal(b1-3)GlcNAc(b1-2)Man(a1-3)[Fuc(a1-2)[Gal(a1-3)]Gal(b1-3)GlcNAc(b1-2)Man(a1-6)]Man(b1-4)GlcNAc(b1-4)GlcNAc
Procedure, shortened: as §1

[18] = molecular target: Fuc(a1-2)[Gal(a1-3)]Gal(b1-3)GlcNAc(b1-2)Man(a1-3)[Fuc(a1-2)[Gal(a1-3)]Gal(b1-3)GlcNAc(b1-2)Man(a1-6)]Man(b1-4)GlcNAc(b1-4)[Fuc(a1-6)]GlcNAc
Procedure, shortened: as §1

[19] = molecular target: Fuc(a1-2)[Gal(a1-3)]Gal(b1-3)GlcNAc(b1-3)GalNAc
Procedure, shortened: as §1

[20] = molecular target: Fuc(a1-2)[Gal(a1-3)]Gal(b1-3)GlcNAc(b1-6)GalNAc
Procedure, shortened: as §1

[21] = molecular target: Fuc(a1-2)[Gal(a1-3)]Gal(b1-4)Glc
Procedure, shortened: as §1

[22] = molecular target: Fuc(a1-2)[Gal(a1-3)]Gal(b1-4)GlcNAc
Procedure, shortened: as §1

[23] = molecular target: Fuc(a1-2)[Gal(a1-3)]Gal(b1-4)GlcNAc(b1-2)Man
Procedure, shortened: as §1

[24] = molecular target: Fuc(a1-2)[Gal(a1-3)]Gal(b1-4)GlcNAc(b1-2)Man(a1-3)[Fuc(a1-2)[Gal(a1-3)]Gal(b1-4)GlcNAc(b1-2)Man(a1-6)]Man(b1-4)GlcNAc(b1-4)GlcNAc
Procedure, shortened: as §1

[25] = molecular target: Fuc(a1-2)[Gal(a1-3)]Gal(b1-4)GlcNAc(b1-2)Man(a1-3)[Fuc(a1-2)[Gal(a1-3)]Gal(b1-4)GlcNAc(b1-2)Man(a1-6)]Man(b1-4)GlcNAc(b1-4)[Fuc(a1-6)]GlcNAc
Procedure, shortened: as §1

[26] = molecular target: Fuc(a1-2)[Gal(a1-3)]Gal(b1-4)GlcNAc(b1-3)GalNAc
Procedure, shortened: as §1

[27] = molecular target: Fuc(a1-2)[Gal(a1-3)]Gal(b1-4)GlcNAc(b1-6)GalNAc
Procedure, shortened: as §1

[28] = molecular target: Fuc(a1-2)[Gal(a1-3)]Gal(b1-4)[Fuc(a1-3)]Glc
Procedure, shortened: as §1

[29] = molecular target: Fuc(a1-2)[Gal(a1-3)]Gal(b1-4)[Fuc(a1-3)]GlcNAc
Procedure, shortened: as §1

[30] = molecular target: Fuc(a1-2)[Gal(a1-3)]Gal(b1-4)[Fuc(a1-3)]GlcNAc(b1-3)GalNAc
Procedure, shortened: as §1

[31] = molecular target: Fuc(a1-2)[Gal(a1-4)]Gal(b1-4)GlcNAc
Procedure, shortened: as §1

[32] = molecular target: Fuc(a1-2)[GalNAc(a1-3)]Gal
Procedure, shortened: as §1

[33] = molecular target: Fuc(a1-2)[GalNAc(a1-3)]Gal(b1-3)GalNAc(a1-3)[Fuc(a1-2)]Gal(b1-4)GlcNAc
Procedure, shortened: as §1

[34] = molecular target: Fuc(a1-2)[GalNAc(a1-3)]Gal(b1-3)GalNAc(b1-3)Gal(a1-4)Gal(b1-4)Glc
Procedure, shortened: as §1

[35] = molecular target: Fuc(a1-2)[GalNAc(a1-3)]Gal(b1-3)GlcNAc
Procedure, shortened: as §1

[36] = molecular target: Fuc(a1-2)[GalNAc(a1-3)]Gal(b1-3)GlcNAc(b1-2)Man(a1-3)[Fuc(a1-2)[GalNAc(a1-3)]Gal(b1-3)GlcNAc(b1-2)Man(a1-6)]Man(b1-4)GlcNAc(b1-4)GlcNAc
Procedure, shortened: as §1

[37] = molecular target: Fuc(a1-2)[GalNAc(a1-3)]Gal(b1-3)GlcNAc(b1-2)Man(a1-3)[Fuc(a1-2)[GalNAc(a1-3)]Gal(b1-3)GlcNAc(b1-2)Man(a1-6)]Man(b1-4)GlcNAc(b1-4)[Fuc(a1-6)]GlcNAc
Procedure, shortened: as §1

[38] = molecular target: Fuc(a1-2)[GalNAc(a1-3)]Gal(b1-3)GlcNAc(b1-3)GalNAc
Procedure, shortened: as §1

B1: Protein L(B1-B4) (Finegoldia magna), Q51912 (protein)
chain: KEETPETPETDSEEEVTIKANLIFANGSTQTAEFKGTFEKATSEAYAYADTLKKDNGEYTVDVADKGYTLNIKFAGKEKTPEEPKEEVTIKANLIYADGKTQTAEFKGTFEEATAEAYRYADALKKDNGEYTVDVADKGYTLNIKFAGKEKTPEEPKEEVTIKANLIYADGKTQTAEFKGTFEEATAEAYRYADLLAKENGKYTVDVADKGYTLNIKFAGKEKTPEEPKEEVTIKANLIYADGKTQTAEFKGTFAEATAEAYRYADLLAKENGKYTADLEDGGYTINIRFAG
With B1 the “glycan array binding signal (z-score)” value [1] was -0.142, the “glycan array binding signal (z-score)” value [2] was -0.114 and the “glycan array binding signal (z-score)” value [3] was 0.954. The “glycan array binding signal (z-score)” value [4] was -0.222, the “glycan array binding signal (z-score)” value [5] was 0.159 and the “glycan array binding signal (z-score)” value [6] was 1.58. For the same binder, the “glycan array binding signal (z-score)” value [7] was -0.418, the “glycan array binding signal (z-score)” value [8] was -0.671 and the “glycan array binding signal (z-score)” value [9] was -0.139. For the same binder, the “glycan array binding signal (z-score)” value [10] was 0.659, the “glycan array binding signal (z-score)” value [11] was 0.451 and the “glycan array binding signal (z-score)” value [12] was -0.084. The “glycan array binding signal (z-score)” value [13] was -0.318, the “glycan array binding signal (z-score)” value [14] was -0.327 and the “glycan array binding signal (z-score)” value [15] was -0.736. The “glycan array binding signal (z-score)” value [16] was -0.191, the “glycan array binding signal (z-score)” value [17] was 0.266 and the “glycan array binding signal (z-score)” value [18] was 3.09. The “glycan array binding signal (z-score)” value [19] was 0.698, the “glycan array binding signal (z-score)” value [20] was -0.099 and the “glycan array binding signal (z-score)” value [21] was 0.047. The “glycan array binding signal (z-score)” value [22] was -0.82, the “glycan array binding signal (z-score)” value [23] was -0.663 and the “glycan array binding signal (z-score)” value [24] was 0.796. For the same binder, the “glycan array binding signal (z-score)” value [25] was 0.815, the “glycan array binding signal (z-score)” value [26] was 3.09 and the “glycan array binding signal (z-score)” value [27] was -0.474. For the same binder, the “glycan array binding signal (z-score)” value [28] was -0.024, the “glycan array binding signal (z-score)” value [29] was 0.143 and the “glycan array binding signal (z-score)” value [30] was 1.4. The “glycan array binding signal (z-score)” value [31] was -0.799, the “glycan array binding signal (z-score)” value [32] was -0.906 and the “glycan array binding signal (z-score)” value [33] was -0.751. The “glycan array binding signal (z-score)” value [34] was -0.372, the “glycan array binding signal (z-score)” value [35] was -0.643 and the “glycan array binding signal (z-score)” value [36] was -0.525. For the same binder, the “glycan array binding signal (z-score)” value [37] was 1.11 and the “glycan array binding signal (z-score)” value [38] was 0.515.

— the supplement of paper PMC8728848
